Measured values as given in patent US11149027B2, “Heterocyclic compound” (Sumitomo Chemical Company, Limited, priority 2016, dated 2021).
Some results were stated once for a whole list of compounds, not compound by compound. At least one compound was matched to its structure with a doubt left.

Key:
[1] = system: cotton aphids (Aphis gossypii); experiment: Test Example 1: foliar spray on cucumber seedling infested with cotton aphids; type: in vivo; details: spray 10 mL/seedling on cucumber, examined after 5 days, 25° C.
[2] = system: cotton aphids (Aphis gossypii); experiment: Test Example 2: soil drench at foot of cucumber seedling, cotton aphids; type: in vivo; details: 1000 ppm, drench 5 mL/seedling, aphids released after 7 days, examined after 6 days

SMILES	controlling value ([1]; 500 ppm)	controlling value ([1]; 200 ppm)	controlling value [2]
CCS(=O)(=O)c1cccnc1-c1cnc(-n2cc(C(F)(F)F)cn2)cn1 [compound 13]	≥ 90%	–	–
CCS(=O)(=O)c1cccnc1-c1ccc(-n2cc(C(F)(F)F)cn2)nn1 [compound 9]	≥ 90%	≥ 90%	≥ 90%
CCS(=O)(=O)c1cccnc1-c1ccc(-n2ccc(C(F)(F)F)n2)nn1 [compound 2]	≥ 90%	≥ 90%	–
CCS(=O)(=O)c1cccnc1-c1cnc(-n2cnc(C(F)(F)F)n2)cn1 [compound 11]	≥ 90%	≥ 90%	≥ 90%
CCS(=O)(=O)c1cccnc1-c1cnc(-n2cnc(C(F)(F)F)c2)cn1 [compound 12]	≥ 90%	–	–
CCS(=O)(=O)c1cccnc1-c1cnc(-n2ccc(C(F)(F)F)n2)cn1 [compound 10]	≥ 90%	–	–
CCS(=O)(=O)c1cccnc1-c1ccc(-n2cnc(Br)n2)nn1 [compound 5]	≥ 90%	–	–
CCS(=O)(=O)c1cccnc1-c1ccc(-n2cc(Br)cn2)nn1 [compound 8]	≥ 90%	≥ 90%	–
CCS(=O)(=O)c1cccnc1-c1ccc(-n2cnc(C(F)(F)F)n2)nn1 [compound 4]	≥ 90%	≥ 90%	≥ 90%
CCS(=O)(=O)c1cccnc1-c1ccc(-n2cnc(C(F)(F)F)c2)nn1 [compound 7]	≥ 90%	≥ 90%	–
